According to paper doi:10.1101/2025.07.02.662713:
No constants are given. Whether binding was seen depends on the method and setting. Some binding calls cover weakened binding; strength is not graded here. Where a sequence is shown, tags or fusion partners need not be part of it.

Amino acid sequences for entries named in this document (tags omitted).
UniProt Q9UGN5: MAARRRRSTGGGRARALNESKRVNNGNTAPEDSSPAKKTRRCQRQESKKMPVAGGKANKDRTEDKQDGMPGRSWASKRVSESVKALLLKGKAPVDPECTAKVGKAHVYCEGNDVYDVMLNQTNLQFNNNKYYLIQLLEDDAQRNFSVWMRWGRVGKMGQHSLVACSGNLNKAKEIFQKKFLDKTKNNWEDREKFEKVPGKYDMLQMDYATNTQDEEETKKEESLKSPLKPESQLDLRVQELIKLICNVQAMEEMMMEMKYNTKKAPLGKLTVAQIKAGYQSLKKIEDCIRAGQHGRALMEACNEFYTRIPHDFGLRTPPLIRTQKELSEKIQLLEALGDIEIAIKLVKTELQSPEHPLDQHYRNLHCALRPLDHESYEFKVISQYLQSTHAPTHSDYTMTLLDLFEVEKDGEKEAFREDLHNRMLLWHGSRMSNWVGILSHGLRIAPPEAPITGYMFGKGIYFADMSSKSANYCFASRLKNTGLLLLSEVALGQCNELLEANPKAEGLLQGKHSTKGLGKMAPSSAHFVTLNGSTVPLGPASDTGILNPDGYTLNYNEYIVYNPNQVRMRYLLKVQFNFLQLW

Molecular target: T1, CFP-MtbDarG MD (mCerulean-fused macrodomain of Mycobacterium tuberculosis DNA ADP-ribosylglycohydrolase DarG) (M. tuberculosis) (UniProt O53605)
T1 sequence: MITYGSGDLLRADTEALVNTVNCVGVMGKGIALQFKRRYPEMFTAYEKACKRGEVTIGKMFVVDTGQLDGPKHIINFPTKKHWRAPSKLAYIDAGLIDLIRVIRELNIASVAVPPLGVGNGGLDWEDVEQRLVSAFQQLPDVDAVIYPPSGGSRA
Assay: FRET or BRET

Substance: PARylated PARP2 (from UniProt Q9UGN5 1-583) (enzyme)
- binding: binds
